Measurements taken from PubChem BioAssay AID540276 (National Center for Advancing Translational Sciences (NCATS), 2011).
Screen size: about 300,000 compounds; about 5,400 (1.8%) were called active. The shares of active, inactive and inconclusive entries below differ from those in the screen. Calls come from the whole dose curve; tested in HEK293 cells. Potencies beside an inconclusive call are fits to weak or partial responses and may not hold up.

Assay: qHTS for inhibitors of binding or entry into cells for Marburg Virus
Conditions: Marburg virus pseudotyped entry inhibition, cell reporter; activity change, negative = inhibition: at 37.8 µM (top of the series) unless noted
% is set by controls: 0 for no effect and ±100 for the full control effect; potency is the fitted concentration of half-maximal effect.

Compound	Potency	activity change, negative = inhibition
Cc1noc(NC(=O)c2c(-c3c(Cl)cccc3Cl)noc2C)c1[N+](=O)[O-]	inconclusive: 11.2 µM [activator, partial curve, poor fit]	
COc1ccc(-c2nc(CC(=O)O)cs2)cc1		inactive: -27.9%
COc1cccc(OC)c1C(=O)Nc1ccccc1NC(=O)c1c(OC)cccc1OC	inconclusive: 2.82 µM [inhibitor, single point]	
Cc1ccc(OCC(=O)Nc2ccc(-c3nnc(-c4ccco4)o3)cc2)cc1	inconclusive: 22.4 µM [inhibitor, partial curve, poor fit]	
CCCN1CCN(CCCNC(=O)c2ccc3c(c2)sc2nc(-c4ccc(OCC)cc4)cn23)CC1	inconclusive: 2.24 µM [inhibitor, single point]	
Cc1cc(C)c2c(c1)cc(C)c1nnc(SCC(=O)Nc3ccccc3N3CCOCC3)n12	inconclusive: 0.398 µM [activator, partial curve, poor fit]	
CCN(CC)c1ccc(-c2nnc(SCC(=O)Nc3ccccc3C#N)n2-c2ccccc2)cc1	inconclusive: 35.5 µM [inhibitor, single point]	
O=S(=O)(Nc1ccncc1)c1ccc(Cl)cc1	inconclusive: 6.51 µM [inhibitor, single point]	
COc1ccc(/C(N)=N/OC(=O)c2ccco2)cc1	inconclusive: 2.82 µM [inhibitor, full curve, poor fit]	
COc1ccc(CCNC(=O)c2ccc(Cn3c(=O)c4ccccc4n(Cc4ccc(F)cc4Cl)c3=O)cc2)cc1OC	inconclusive: 0.562 µM [inhibitor, full curve, poor fit]	
CCN(CC)CCn1c2c(c(SCC(=O)Nc3cccc4ccccc34)nc1=O)CCCC2	inconclusive: 35.5 µM [inhibitor, single point]	
CC(OC(=O)Cn1[nH]c(=O)c2ccccc2c1=O)C(=O)NC1(C#N)CCCCC1 (configuration not stated)		inactive: 0.306%
Cc1cc(N2CCN(c3ccccc3)CC2)n2cnnc2n1		inactive: 2.32% [at 46.1 µM]
O=C1NC(=S)NC(=O)C1c1ccccc1		inactive: 3.11% [at 46.1 µM]
Cc1cccc(C)c1C(=NCCCN(C)C)c1ccccc1	inconclusive: 0.251 µM [inhibitor, full curve, poor fit]	
C=CC(=O)N1C/C(=C/c2ccc(Cl)cc2)C(=O)/C(=C\c2ccc(Cl)cc2)C1	inconclusive: 2.82 µM [inhibitor, full curve, poor fit]	
COc1cc(/C=C/C(=O)OCC(=O)Nc2ccc(C)c(S(=O)(=O)N3CCCCC3)c2)ccc1O	inconclusive: 1.12 µM [inhibitor, single point]	

Quoted at random: 2 records from the list, in no set order.
Compound	Potency	activity change, negative = inhibition
Cc1cc(N2CCN(c3ccccc3)CC2)n2cnnc2n1		inactive: 2.32% [at 46.1 µM]
C=CC(=O)N1C/C(=C/c2ccc(Cl)cc2)C(=O)/C(=C\c2ccc(Cl)cc2)C1	inconclusive: 2.82 µM [inhibitor, full curve, poor fit]	
